# Source: PubChem BioAssay AID445 (National Center for Advancing Translational Sciences (NCATS), 2006)
# Some of the results follow. Shown are side measurements of this screen, not its main read-out; they come without a call. Most of these compounds were active or inconclusive in the main read-out, so they are no random draw. Potencies come from curve fits of mixed quality, noted in brackets.
# Assay: IkB Signaling
# Settings: ABC-DLBCL IkBa-CBG/CBR dual luciferase ratio (green luciferase fused to IkBa over red control in OCI-Ly3 lymphoma cells), 4 h; measured here: control luc red channel unless noted
# Summary of the method: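 In this assay, an IκBα–CBG68 fusion accumulates when IKK-driven degradation is blocked; native CBR normalizes for cell number. OCI-Ly3 cells were treated 4 h with compound and doxycycline, then green and red light read after Chroma-Glo addition.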
row,Structure (SMILES),AC50
1,CC(C)CC(NC(=O)C1CCCCC1)C(=O)Nc1cccc(C(F)(F)F)c1 (centres undefined),"20 µM [falling, partial curve, poor fit]"
2,COc1ccc(N=c2oc3cc(O)ccc3cc2C(=O)NCC2CCCO2)cc1 (centres undefined),"0.2 µM [falling, full curve]"
3,Cc1ccc(NC(=O)c2sc3nc(-c4ccncc4)ccc3c2N)cc1,"0.0398 µM [falling, full curve]"
4,CCOc1ccc(S(=O)(=O)c2c(C(=O)c3ccc(C)c(C)c3)cnc3ccccc23)cc1,"20 µM [falling, partial curve, poor fit]"
5,Cc1ccc(CNC(=O)CCc2nnc3n(C)c(=O)c4sccc4n23)cc1,"31.6 µM [falling, single point]"
6,CCOC(=O)c1ccc(Nc2nnc(C(C)(C)C)c(=O)[nH]2)cc1,"2 µM [falling, full curve]"
7,CC(=O)Nc1ccc(Nc2c(CCC(C)C)c(C)c(C#N)c3nc4ccccc4n23)cc1,"31.6 µM [falling, partial curve]"
8,CCc1ccc2nc(NC(=O)CSCc3c(C)noc3C)sc2c1,"25.1 µM [falling, partial curve]"
9,COC(=O)c1sccc1S(=O)(=O)N(CC(=O)Nc1ccc(C)c(F)c1)c1ccc(C)c(C)c1,"5.01 µM [falling, partial curve]"
10,Cc1onc(-c2ccccc2Cl)c1C(=O)Nc1cccc(-c2nc3ncccn3c2C)c1,"12.6 µM [falling, partial curve]"
11,COc1ccc(-c2cc(C(C)=O)c(C)n2CCC(=O)Nc2ccc(C)c(Cl)c2)cc1,"39.8 µM [falling, single point]"
12,COc1ccc(NC(=O)CCn2c(-c3ccc(F)cc3)cc(C(C)=O)c2C)c(OC)c1,"0.398 µM [rising, partial curve]"
13,CCCNc1ncnc2c1c(-c1ccccc1)cn2-c1ccc(OCC)cc1,"31.6 µM [falling, partial curve]"
14,COC(=O)CSc1nnc(CNc2ccc(Cl)cc2)n1Cc1ccccc1,"10 µM [falling, partial curve]"
15,CCCOc1ccc(C(=O)Nc2ccc(-c3cc4ccccc4oc3=O)c(C)c2)cc1,"3.16 µM [falling, full curve]"
16,Cc1ccc(NC(=O)c2c(C)oc3ccc(O)c(CN(C)Cc4ccccc4)c23)c(C)c1,"12.6 µM [falling, partial curve]"
17,CCc1ccc(Nc2nnc(-c3cc4cc(OC)ccc4oc3=O)s2)cc1,"5.01 µM [rising, full curve]"
18,CCc1c(C)nc(SCc2nc(-c3ccccc3C)no2)[nH]c1=O,"31.6 µM [falling, single point]"
19,Cc1ccc(NC(=O)C2CCCN2S(=O)(=O)c2ccc3c(c2)C(C)(C)C(=O)N3C)cc1 (centres undefined),"25.1 µM [falling, single point]"
20,COc1ccc(-c2cc(OC)c3c(C)oc(C)c3c(=O)c2)cc1OC,"39.8 µM [falling, single point]"

row,Structure (SMILES),AC50
1,Cc1ccccc1-n1c(SCc2ccccn2)nc2n[nH]c(C)c2c1=N,"15.8 µM [falling, partial curve]"
2,COc1ccc(-c2cc(C)no2)cc1S(=O)(=O)NC1CCC(C)CC1 (centres undefined),"10 µM [falling, partial curve]"
3,CCOc1ccc(-n2ccnc2SCC(=O)Nc2ccc3c(c2)OCO3)cc1,"25.1 µM [falling, single point]"
4,COc1ccc(S(=O)(=O)NCCc2sc3nc(-c4ccc(C)cc4)nn3c2C)cc1F,"39.8 µM [falling, single point]"
5,CCOc1ccc(CNC(=O)c2cnc3sc(N(CC)CC)nn3c2=O)cc1,"10 µM [falling, partial curve, poor fit]"
6,Cc1ccc(CNC(=O)CN2CCN(Cc3ccc(Cl)cc3)C2=O)cc1,"12.6 µM [falling, partial curve]"
7,CC(=O)Nc1ccc(NC(=O)c2cc(-c3cccs3)on2)cc1,"3.98 µM [rising, partial curve]"
8,O=C(CSC1=Nc2ccccc2N=C(c2ccc(F)cc2)C1)Nc1ccc(Cl)cc1,"3.16 µM [falling, full curve, poor fit]"
9,CCc1cccc(C)c1NC(=O)c1ccc2c(c1)CCN2S(=O)(=O)CC,"20 µM [falling, partial curve]"
10,O=C(COC(=O)c1ccccc1S(=O)(=O)N1CCCCC1)NCC(F)(F)F,"25.1 µM [falling, single point]"
11,CC(C)NC(=O)C1CCN(C(=O)c2cc3sccc3n2Cc2ccc(F)cc2)CC1,"7.94 µM [falling, full curve, poor fit]"
12,COc1ccc(N2CCN(C(=O)C(C)n3c(=O)cc(C(F)(F)F)c4c(C)nn(C)c43)CC2)cc1 (centres undefined),"31.6 µM [falling, single point]"
13,CCn1c2ccccc2c2cc(NC(=O)CSc3nnc(C4CC4)n3Cc3ccco3)ccc21,"15.8 µM [falling, partial curve]"
14,COc1ccc(CN(C(=O)CN2C(=O)COc3ccccc32)C2CCCC2)c(OC)c1,"31.6 µM [falling, partial curve, poor fit]"
15,Cc1ccc(-n2c(=O)c3oc4ccccc4c3n(CC(=O)Nc3ccc(F)c(Cl)c3)c2=O)cc1C,"15.8 µM [falling, partial curve]"
16,O=C(CS(=O)(=O)c1cccc2nsnc12)Nc1ccc(F)cc1F,"2.51 µM [falling, partial curve]"
17,O=C(Nc1ccccc1F)C1CCN(S(=O)(=O)c2ccc3c(c2)CCCN3C(=O)C2CCC2)CC1,"0.316 µM [falling, partial curve, poor fit]"
18,O=C(Nc1ccc(C(=O)OCc2cc(=O)n3nc(C4CC4)sc3n2)cc1)c1cccc(Cl)c1,"39.8 µM [falling, partial curve, poor fit]"
19,CCc1ccccc1NC(=O)C(CC)Oc1ccccc1-c1nnc(-c2ccccc2)o1 (centres undefined),"3.98 µM [falling, partial curve, poor fit]"

# A run of entries from further up, for reference:
row,Structure (SMILES),AC50
9,CCc1cccc(C)c1NC(=O)c1ccc2c(c1)CCN2S(=O)(=O)CC,"20 µM [falling, partial curve]"
10,O=C(COC(=O)c1ccccc1S(=O)(=O)N1CCCCC1)NCC(F)(F)F,"25.1 µM [falling, single point]"
